{
  "source": "patent US20200131558A1",
  "about": "“PAPER-BASED ASSAY FOR ANTIMICROBIAL RESISTANCE” (Colorado State University Research Foundation, priority 2017, published 2020)",
  "test_system": "Chromobacterium violaceum",
  "assay": "Antibiotic susceptibility testing (MIC, VITEK 2 microdilution)",
  "assay_type": "cell-based",
  "details": "C. violaceum isolate from influent of urban sewage water",
  "protocol": "To determine antibiotic susceptibility of Chromobacterium violaceum and the 32 E. coli isolates, each isolate was subjected to antibiotic susceptibility testing [VITEK 2™ Biomerieux, USA] using microdilution and photometric determination of growth at the Colorado State University Veterinary Diagnostic Laboratory located in Fort Collins, Colo., US. […] The antibiotics that were tested against C. violaceum included amikacin, amoxicillin-clavulanate, ampicillin, cefazolin, cefpodoxime, ceftazidime, cephalothin, imipenem, ticarcillin, and ticarcillin-clavulanate. Antibiotics tested against each E. coli isolate included amoxicillin, ampicillin, cefalexin, cefovecin, cefpodoxime, ceftiofur, piperacillin, ceftazidime, cefotaxime, and imipenem.",
  "note": "At least one compound was matched to its structure with a doubt left.",
  "data": [
    {"smiles": "C[C@@H](O)[C@H]1C(=O)N2C(C(=O)O)=C(SCCN=CN)C[C@H]12", "note": "[imipenem]", "values": [
      {"measurement": "resistance/susceptibility of isolate (MIC interpreted per CLSI)", "result": "susceptible"}
    ]}
  ]
}
